Experimental findings from PubChem BioAssay AID651660 (Broad Institute, 2012) are described below.

Protein sequences, listed by entry. Tags and fused reporters are not part of them. Lines headed by an entry give the natural chain unless they say otherwise; changes in a name come on top.
UniProt P43351: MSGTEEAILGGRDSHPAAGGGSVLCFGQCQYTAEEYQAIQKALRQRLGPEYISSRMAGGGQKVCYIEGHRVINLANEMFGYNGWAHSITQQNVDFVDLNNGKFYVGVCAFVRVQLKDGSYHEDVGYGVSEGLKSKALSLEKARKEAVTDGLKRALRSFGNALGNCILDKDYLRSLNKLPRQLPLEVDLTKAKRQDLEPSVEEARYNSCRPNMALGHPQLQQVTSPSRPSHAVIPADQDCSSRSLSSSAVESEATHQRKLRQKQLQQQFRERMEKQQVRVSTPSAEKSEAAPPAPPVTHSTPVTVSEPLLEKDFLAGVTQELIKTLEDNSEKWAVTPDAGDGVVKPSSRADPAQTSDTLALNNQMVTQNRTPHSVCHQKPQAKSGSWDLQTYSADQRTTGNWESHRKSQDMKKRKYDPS

Where “and” joins values, the source holds several entries; their conditions need not be identical. Equal values may be shown once. Screen size: about 1,900 compounds; about 15 (0.8%) were called active.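 Rule for the calls: active = every replicate shows at least 50% inhibition; inconclusive = mean inhibition at least 50% but some replicate below; inactive = the rest.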 The list shows a part of the results.

The target in this experiment is DNA repair protein RAD52 homolog (Homo sapiens) (UniProt P43351). The experiment can be described thus: RAD52 ssDNA annealing inhibitors, primary screen, biochemical, FRET, single point (AID 651660).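 Note: 0% = median of neutral control wells and 100% = median of positive control wells.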 The following applies: Recombinant RAD52 ssDNA annealing, FRET fluorescence, 30 min; at 18.7 µM; stronger effect = higher value.
A word on the inhibition: it is the drop in the measured response relative to a control, in per cent. As for `CC(=O)N1CC2(C)CN(C(C)=O)CC(C)(C1)C2`, the inhibition is inactive: -4.54%.
For `O=c1ccn([C@@H]2O[C@H](CO)[C@@H](O)[C@H]2O)c(=O)[nH]1`, the inhibition is inactive: -0.182%.
As to `Cc1cc(O)c(C(C)C)cc1C1(c2cc(C(C)C)c(O)cc2C)OC(=O)c2ccccc21`, the inhibition was inactive: -6.19%.
Under `CCCCCC(O)c1cccc(OCc2ccc3ccccc3n2)c1` (stereo not drawn) stands inactive: 8.49%; under `COc1ccc(C2CC(c3ccc([N+](=O)[O-])cc3)=NN2C(=O)c2ccccc2)cc1OC` (stereo not drawn), inactive: -4.95%.
Take `CCCCNc1cc(C(=O)O)cc(S(N)(=O)=O)c1Oc1ccccc1`: the inhibition is inactive: -6.48%.
For the compound `CC1(C)CC(CC(=O)O)(c2ccc(Cl)cc2)CCO1` (stereo not drawn), the inhibition is inactive: -20%.
Regarding `COc1c2c(nc3occc13)C(CC=C(C)C)(OC)C(O)CC2` (stereo not drawn), the inhibition is inactive: -12.2%.
Regarding `C[N+]12CCCCC1C(COC(=O)c1ccc3c(c1)OCO3)CCC2` (stereo not drawn), the inhibition is inactive: 8.11%.
For the compound `Cc1cc(OC(C(=O)O)c2ccccc2)c2c(C)c(Cc3ccccc3)c(=O)oc2c1` (stereo not drawn), the inhibition was inactive: -12.1%.
Regarding `CC1(C)CC(=O)C(C2(O)C(=O)Nc3ccccc32)CO1` (stereo not drawn), the inhibition is inactive: -4.58%.
With `O=C(CCCCC(=O)NC1CCCC1)NC1CCCC1` the figure was inactive: -2.55%; with `CC[C@H](C)C(=O)O[C@H]1C[C@@H](C)C=C2C=C[C@H](C)[C@H](CC[C@@H]3C[C@@H](O)CC(=O)O3)[C@H]21`, inactive: -3.45%.
On to `Cc1nc(C2CC(=O)OC23CCCCC3)cs1` (stereo not drawn), for which the inhibition is inactive: -9.38%.
With `COc1ccc(C(=O)O)cc1F` the figure was inactive: -6.77%; with `Cc1ccc(C2CC(c3cccs3)=NN2C(=O)c2ccco2)o1` (stereo not drawn), inactive: -5.04%; with `COc1cc(CNc2ccc(C)c(C)c2)cc(OC)c1OC`, inactive: -4.85%.
With `CC(=O)N[C@@H](CS)C(=O)O` the figure was inactive: 1.59%; with `O=C(CNC(=O)OCc1ccccc1)NC1CCCCCC1`, inactive: 0.625%; with `O=C(OCC(O)C(O)COC(=O)c1ccccc1)c1ccccc1` (stereo not drawn), inactive: -10.3%.
With `O=C(CCc1ccccc1)Nc1ccccc1C(F)(F)F` the figure was inactive: -1.84%; with `CC(=O)c1c(C)c(C)c2n1CCn1c(C)ccc1-2`, inactive: -152%; with `Oc1ccc(COCc2ccccc2)c2cccnc12`, inactive: -34.7%.
`O=C(O)c1cc2cc(Cl)cc(Cl)c2oc1=O`: the inhibition is inactive: -23.7%.
With `COc1ccc(NC(=S)NCCc2c[nH]c3ccccc23)cc1` the figure was inactive: 7.25%.
With `O=C(NCCNc1ccc(Cl)cc1[N+](=O)[O-])c1cccnc1` the figure was inactive: -2.03%; with `CC(C)Oc1ccc(C2CC(=O)N(c3ccc(C(=O)O)cc3)C2=O)cc1` (stereo not drawn), inactive: -4.85%; with `O=C(NC(Nc1ccccn1)C(Cl)(Cl)Cl)c1ccccc1` (stereo not drawn), inactive: -5.2%.
With `C[C@]12C[C@H](O)[C@H]3[C@@H](CCC4=CC(=O)CC[C@@]43C)[C@@H]1CC[C@@H]2C(=O)CO` the figure was inactive: -1.6%.
As for `c1ccc(-c2ccccn2)nc1`, the inhibition was inactive: -16%.
With `COCCOC(=O)C1=C(N)OC2=C(C(=O)CCC2)C1c1cccnc1` (stereo not drawn) the figure was inactive: -5.44%.
Under `CCSc1nc(O)c(C2OC(=O)c3c2ccc(OC)c3OC)c(=O)n1CC` (stereo not drawn) stands inactive: -5.46%; under `CCN(CC)C(=S)SSC(=S)N(CC)CC`, inactive: -20%; under `CCOC(=O)C(NC(C)=O)C(O)c1ccc([N+](=O)[O-])cc1` (stereo not drawn), inactive: 1.8%.
With `COc1cc2cc(C(=O)O)n(C)c2c(OC)c1OC` the figure was inactive: -3.98%; with `CCNC(=O)c1c(N)sc2c1CCCCC2`, inactive: -63%.
Take `Nc1c2c(nc3ccccc13)CCCC2`: the inhibition was inactive: 18.1%.
Under `COc1ccc(C(C)N2CC34C=CC(O3)C(C(=O)OCC(C)C)C4C2=O)cc1` (stereo not drawn) stands inactive: 6.46%.
As to `O=C1OC(Nc2ccc3c(c2)OCO3)c2ccccc21` (stereo not drawn), the inhibition is inactive: -1.7%.
Under `COc1cc2c3c(c1)C1(C(=O)N3C(C)(C)C=C2C)C(C#N)=C(N)Oc2cc(C)oc(=O)c21` (stereo not drawn) stands inactive: 9.01%.
Under `COc1cc2c(cc1OC)C(C)=NC1(CCCCC1)C2` stands inactive: -27.9%; under `COc1ccc2[nH]c3c(c2c1)CCn1c-3nc2ccccc2c1=O`, inactive: -28.6%.
With `Cc1ccc2nc(NC3=NC(CC(=O)O)C(=O)N3)nc(C)c2c1` (stereo not drawn) the figure was inactive: 7.8%; with `CC(=O)[C@@]1(O)CC[C@H]2[C@@H]3C[C@H](C)C4=CC(=O)CC[C@]4(C)[C@H]3CC[C@@]21C`, inactive: -0.875%; with `OCC1(CCOc2ccccc2)CCN(CCCn2cccn2)CC1`, inactive: 5.11%.
`Cn1c2ccc(CC(=O)O)cc2c2cc(CC(=O)O)ccc21`: the inhibition is inactive: -173%.
With `COc1cc(NC(=O)N[C@@H](Cc2ccccc2)C(=O)O)cc(OC)c1` the figure was inactive: -12%; with `NS(=O)(=O)c1cc2c(cc1Cl)NC(CSCc1ccccc1)=NS2(=O)=O`, inactive: -11.8%; with `CCNC(=O)c1sc2cc(C)ccc2c1Cl`, inactive: -3.45%.
Under `Cc1cc(NS(=O)(=O)c2ccc(N)cc2)no1` stands inactive: -13.7%; under `Cc1ccccc1NC(=O)c1c(C)cc(=O)oc1C`, inactive: -0.543%; under `O=C(CNC(=O)OCc1ccccc1)Oc1cc2oc(=O)cc(-c3ccccc3)c2cc1Cl`, inactive: -7.29%.
In the case of `Cc1ccc([N+](=O)[O-])cc1NC1OC(CO)C(O)C1O` (stereo not drawn), the inhibition was inactive: 3.33%.
With `CC1(C)Cc2nc3oc4c(NCc5ccccc5)ncnc4c3cc2CO1` the figure was inactive: 0.368%; with `CCCC1O[C@@H]2C[C@H]3[C@@H]4CCC5=CC(=O)C=C[C@]5(C)[C@H]4[C@@H](O)C[C@]3(C)[C@]2(C(=O)CO)O1` (stereo partly drawn), inactive: 4.83%; with `CC(=O)N1CCN2C(=O)C1CCCC(=O)c1cc(C(C)C)ccc12` (stereo not drawn), inactive: -1.53%.
Under `CCOC(=O)Cc1c(C)nc(N)[nH]c1=O` stands inactive: -3.45%.
With `CCOC(=O)c1ncn2c1CN(C)C(=O)c1cc(F)ccc1-2` the figure was inactive: 3.73%; with `COc1cc(SC)ccc1C(=O)NC(C)C`, inactive: -10.4%; with `COc1ccc(C(=O)NCCC2=CCCCC2)cc1[N+](=O)[O-]`, inactive: 4.28%.
For `CC(C(=O)O)c1cccc(C(=O)c2ccccc2)c1` (stereo not drawn), the inhibition was inactive: -4.14%.
With `Cc1oc2cc(O)cc(O)c2c(=O)c1-c1ccc2c(c1)OCCCO2` the figure was inactive: 3.6%; with `O=C(O)c1ccc(OCCn2ccnc2)cc1`, inactive: -2.71%; with `Cc1occc(=O)c1O`, inactive: -1.11%.
Under `CCOCCn1c(C(C)O)nc2ccccc21` (stereo not drawn) stands inactive: 2.97%; under `COc1cc2c(cc1OC)C(c1ccccc1)=NCC2`, inactive: -2.91%.
With `COc1ccc(C(=O)Nc2cccnc2)cc1C(=O)Nc1cccnc1` the figure was inactive: -8.6%; with `CCC12CN3CC(CC)(CN(C1)C31C(=O)N(C)c3ccc(C)cc31)C2=O` (stereo not drawn), inactive: -6.86%.
As for `Cn1cnc2c1c(=O)n(CC(O)CO)c(=O)n2C` (stereo not drawn), the inhibition was inactive: -8.16%.
As to `CC(=O)OCC(=O)[C@@]1(O)[C@H](C)C[C@H]2[C@@H]3CCC4=CC(=O)C=C[C@]4(C)[C@@]3(F)[C@@H](O)C[C@@]21C`, the inhibition is inactive: 1.44%.
Under `Cc1ccccc1NC(=O)NCCc1c[nH]c2ccccc12` stands inactive: -17.5%; under `Nc1nc2c(ncn2COCCO)c(=O)[nH]1`, inactive: -1.55%; under `O=c1c2[nH]c3ccccc3c2ncn1CCC1=CCCCC1`, inactive: 3.7%.
Under `COc1ccc2nc(Nc3nc(CSc4ccc(C)cc4)cc(=O)[nH]3)nc(C)c2c1` stands inactive: -6.23%; under `COc1cc(CNCCc2ccccc2F)ccc1OCC(=O)N1CCCCC1`, inactive: -0.54%.
With `CC(O)Cn1cnc2c1c(=O)n(C)c(=O)n2C` (stereo not drawn) the figure was inactive: 5.86%.
For `O=C(NC(=S)N1CCCCC1)c1cccnc1`, the inhibition is inactive: -0.676%.
Under `NS(=O)(=O)c1cc2c(cc1C(F)(F)F)NCNS2(=O)=O` stands inactive: 2.13%; under `CC(C)C12CN3CC(C(C)C)(CN(C1)C3c1ccccc1O)C2=O` (stereo not drawn), inactive: -7%; under `CC12CN3CC(C)(CN(C1)C3c1ccc(Br)cc1O)C2` (stereo not drawn), inactive: -9.4%.
Under `O=S(=O)(NCCCCCNS(=O)(=O)c1ccccc1)c1ccccc1` stands inactive: 3.3%; under `CCOC(=O)/C=C1\NC(C)(C)Cc2cc(OC)c(OC)cc21`, inactive: 1.32%.
For `CCc1ccc(/C=C2\SC(=S)N(CCC(=O)N3CCN(C)CC3)C2=O)cc1`, the inhibition is inactive: 4.06%.
For the compound `COC(=O)c1cc(=O)c2ccc(OC)cc2o1`, the inhibition was inactive: -8.77%.
Under `Cc1cccc(C)c1NS(=O)(=O)c1ccc(NC(=O)c2ccc(Cl)c([N+](=O)[O-])c2)cc1` stands inactive: -9.74%; under `CC(=O)CCc1oc2ccccc2c1-c1ccccc1`, inactive: 3.27%.
With `COc1ccc(Cc2noc(CN(C)CCN3CCc4ccccc4C3)n2)cc1OC` the figure was inactive: 2.83%; with `CCOC(=O)COc1ccc2c(=O)c(-c3ccccc3)coc2c1`, inactive: 5.29%.
With `NC(N)=NC(=O)c1nc(Cl)c(N)nc1N` the figure was inactive: 24.7%.
In the case of `CC(C)C12CN3CC(C(C)C)(CN(C1)C31C(=O)Nc3ccccc31)C2=O` (stereo not drawn), the inhibition was inactive: -8.73%.
On to `CC(=O)CSc1ncnc2c1cnn2-c1ccccc1`, for which the inhibition was inactive: -1.45%.
With `CCN(CC)CC(=O)Nc1c(C)cccc1C` the figure was inactive: -0.181% and inactive: -3.09%; with `COc1ccc(C(=O)CC2OC(=O)c3c2ccc(OC)c3OC)cc1` (stereo not drawn), inactive: -3.39%; with `COc1ccc(/C=C\c2cc(OC)c(OC)cc2CC[N+](C)(C)C)cc1OC`, inactive: 29.6%.
Regarding `c1ccc2c(CC3=NCCN3)cccc2c1`, the inhibition is inactive: -5.42%.
With `O=C(N/N=C\c1cc([N+](=O)[O-])ccc1N1CCOCC1)c1ccccn1` the figure was inactive: -7.1%.
For `CCOc1ccc(C(=O)N2CCCC2C(=O)O)cc1` (stereo not drawn), the inhibition is inactive: 3.33%.
`Cc1cn([C@H]2C=C[C@@H](CO)O2)c(=O)[nH]c1=O`: the inhibition is inactive: -3.8%.
